No constants are given. Whether binding was seen depends on the method and setting. Binding seen in cells or lysates may run through a third protein. Some entries that bind do so weakly or less than the wild type.
Molecular target: T1, USP15 (UniProt Q9Y4E8)
T1 sequence: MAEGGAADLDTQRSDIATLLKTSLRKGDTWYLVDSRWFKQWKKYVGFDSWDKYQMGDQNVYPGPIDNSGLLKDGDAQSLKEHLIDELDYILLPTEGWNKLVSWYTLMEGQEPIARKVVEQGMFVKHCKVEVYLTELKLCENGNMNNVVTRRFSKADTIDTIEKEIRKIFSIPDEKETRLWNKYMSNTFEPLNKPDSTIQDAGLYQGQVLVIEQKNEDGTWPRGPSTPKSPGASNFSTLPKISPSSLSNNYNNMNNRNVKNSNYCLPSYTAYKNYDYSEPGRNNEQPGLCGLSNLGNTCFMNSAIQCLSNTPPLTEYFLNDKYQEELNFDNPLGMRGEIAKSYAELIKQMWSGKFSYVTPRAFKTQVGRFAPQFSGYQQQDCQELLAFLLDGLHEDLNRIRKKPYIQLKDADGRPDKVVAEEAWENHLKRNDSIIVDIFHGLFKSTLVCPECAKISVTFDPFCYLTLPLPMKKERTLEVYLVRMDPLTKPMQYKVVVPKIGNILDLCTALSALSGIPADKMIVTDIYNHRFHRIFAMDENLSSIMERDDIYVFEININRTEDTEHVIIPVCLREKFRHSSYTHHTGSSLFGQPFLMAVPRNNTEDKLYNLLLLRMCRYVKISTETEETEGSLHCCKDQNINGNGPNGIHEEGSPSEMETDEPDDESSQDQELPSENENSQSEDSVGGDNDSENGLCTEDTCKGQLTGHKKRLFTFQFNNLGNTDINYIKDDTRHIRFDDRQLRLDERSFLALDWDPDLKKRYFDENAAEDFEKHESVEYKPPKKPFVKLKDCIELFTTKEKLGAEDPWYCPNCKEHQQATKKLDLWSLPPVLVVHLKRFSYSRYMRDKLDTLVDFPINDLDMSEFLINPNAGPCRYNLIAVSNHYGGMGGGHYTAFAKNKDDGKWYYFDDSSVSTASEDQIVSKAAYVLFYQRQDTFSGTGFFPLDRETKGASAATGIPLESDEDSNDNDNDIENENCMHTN
Assay: co-IP; co-immunoprecipitation of USP15 and LGALS3 from HCC cells; details in Additional File 2 (not shown)

Protein sequences, listed by entry. Tags and fused reporters are not part of them.
UniProt P17931: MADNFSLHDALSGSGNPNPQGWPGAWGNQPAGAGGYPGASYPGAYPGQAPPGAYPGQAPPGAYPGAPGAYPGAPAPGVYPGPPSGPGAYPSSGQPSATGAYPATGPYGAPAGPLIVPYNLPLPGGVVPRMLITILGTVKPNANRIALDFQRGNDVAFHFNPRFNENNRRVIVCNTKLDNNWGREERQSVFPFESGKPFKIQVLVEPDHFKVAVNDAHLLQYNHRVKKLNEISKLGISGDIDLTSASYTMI

- binding: binds
Substance: LGALS3 (from UniProt P17931 1-250)

From PMC11724082
